Test results taken from patent US20230322815A1, “NOVEL COMPOUNDS AND THERAPEUTIC USES THEREOF” (University of Huddersfield, priority 2020, published 2023).
pIC50: −log10 of the molar value. Some entries share one result that the patent states for a list of compounds. At least one structure is not confirmed: it was looked up by name or label, or the drawing left a doubt.

Assays:
Format in all cases: cell-based, human
PSN1 = assay: Chemosensitivity (MTT, 96 h continuous exposure); conditions: PSN1, 96 h
MiaPaCa2 = assay: Chemosensitivity (MTT, 96 h continuous exposure); conditions: MiaPaCa2, 96 h
[1] = test system: GBM1 glioblastoma cancer stem cell model; assay: Chemosensitivity (MTT, 96 h continuous exposure); conditions: GBM1, 96 h
[2] = test system: HCT116 p53^+/+ cancer cells; assay: Cellular ATP levels; conditions: 20 h

Row | Compound | pIC50 (PSN1) | pIC50 (MiaPaCa2) | pIC50 [1] | ATP levels compared to vehicle control ([2]; 100 μM (highest concentration)) [%] | ATP levels compared to vehicle control ([2]; 6.25 μM) [%] | ATP levels compared to vehicle control ([2]; concentrations of ≥25 μM) [%]
1 | [Cu+2].[Cu+2].[Cu+2].c1ccc(-c2csc(NCCN(CCNc3nc(-c4ccccn4)cs3)CCNc3nc(-c4ccccn4)cs3)n2)nc1.c1ccc(-c2csc(NCCN(CCNc3nc(-c4ccccn4)cs3)CCNc3nc(-c4ccccn4)cs3)n2)nc1 [[L2Cu3]^6+] | < 6.00 | < 5.00 | < 6.00 | < 50 | – | –
2 | [Mn+2].[Mn+2].[Mn+2].c1ccc(-c2csc(NCCN(CCNc3nc(-c4ccccn4)cs3)CCNc3nc(-c4ccccn4)cs3)n2)nc1.c1ccc(-c2csc(NCCN(CCNc3nc(-c4ccccn4)cs3)CCNc3nc(-c4ccccn4)cs3)n2)nc1 [[L2Mn3]^6+] | – | – | – | – | < 50 | –
3 | [Zn+2].[Zn+2].[Zn+2].c1ccc(-c2csc(NCCN(CCNc3nc(-c4ccccn4)cs3)CCNc3nc(-c4ccccn4)cs3)n2)nc1.c1ccc(-c2csc(NCCN(CCNc3nc(-c4ccccn4)cs3)CCNc3nc(-c4ccccn4)cs3)n2)nc1 [[L2Zn3]^6+] | < 6.00 | – | < 6.00 | – | – | < 50
